No constants are given. Whether binding was seen depends on the method and setting. Binding seen in cells or lysates may run through a third protein. A result given as binding can be weak or reduced; the word gives no strength.
What was measured:
[1] = target: green fluorescent protein (GFP)-tagged FAM134B (UniProt Q9H6L5); assay: co-IP; transiently expressed HA–ARL6IP1 or HA–ARL6IP1-7KR with GFP–FAM134B; in Fig. 4h with co-expressed AMFR–Flag or AMFR-RINGmut–Flag; immunoblot
HA–ARL6IP1-7KR = HA–ARL6IP1-7KR (UniProt Q15041); assay: co-IP; HEK293T cells transfected with HA-tagged ARL6IP1 or FAM134B constructs; WT and variant proteins pulled down, the endogenous binding partner detected by immunoblot

By UniProt entry, the sequences of proteins in these tests, tags left out.
UniProt Q9H6L5: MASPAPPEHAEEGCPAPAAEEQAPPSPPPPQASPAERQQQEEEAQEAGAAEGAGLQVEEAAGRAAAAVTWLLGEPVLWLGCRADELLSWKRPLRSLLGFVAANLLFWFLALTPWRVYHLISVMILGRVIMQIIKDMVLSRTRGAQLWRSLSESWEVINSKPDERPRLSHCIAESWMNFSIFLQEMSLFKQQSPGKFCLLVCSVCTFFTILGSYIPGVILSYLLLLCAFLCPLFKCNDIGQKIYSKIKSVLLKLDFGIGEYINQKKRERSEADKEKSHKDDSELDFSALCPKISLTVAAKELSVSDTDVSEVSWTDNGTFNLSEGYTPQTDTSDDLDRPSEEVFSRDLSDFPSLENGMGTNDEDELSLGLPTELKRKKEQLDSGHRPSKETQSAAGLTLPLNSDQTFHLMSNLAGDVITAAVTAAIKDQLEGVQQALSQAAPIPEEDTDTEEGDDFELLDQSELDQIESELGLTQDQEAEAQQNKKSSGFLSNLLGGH

## HA–ARL6IP1-7KR (from UniProt Q15041)
[1]
  binding: binds

## endogenous FAM134B (human cells) (from UniProt Q9H6L5 1-497)
HA–ARL6IP1-7KR
  binding: binds

Reference: article PMC10247384
